According to patent US10080758B2, “Tosylate salt of N-[3-[(4aR,7aS)-2-amino-6-(5-fluoropyrimidin-2-yl)-4,4a,5,7-tetrahydropyrrolo[3,4-d][1,3]thiazin-7a-yl]-4-fluoro-phenyl]-5-methoxy-pyrazine-2-carboxamide” (Eli Lilly and Company, priority 2015, dated 2018):
For at least one compound, name, drawing or mass did not settle the structure.

Assay: Solvent retained in the crystal
Format: physicochemical

## COc1cnc(C(=O)Nc2ccc(F)c([C@]34CN(c5ncc(F)cn5)C[C@H]3CSC(N)=N4)c2)cn1.Cc1ccc(S(=O)(=O)O)cc1 [Example 1, N-[3-[(4aR,7aS)-2-Amino-6-(5-fluoropyrimidin-2-yl)-4,4a,5,7-tetrahydropyrrolo[3,4-d][1,3]thiazin-7a-yl]-4-fluoro-phenyl]-5-methoxy-pyrazine-2-carboxamide; toluenesulfonic acid]
  amount of solvent retained in the crystal: about 1.3%
